Experimental data taken from patent publication US5874597A, “Certain aminosterol compounds and pharmaceutical compositions including these compounds” (priority 1995, dated 1999).
At least one compound was matched to its structure with a doubt left.

Tested on: Xenopus tadpole (stage 59-60)
Details: 10 μg/mL, Table II

CC(C)CCCC(C)[C@H]1CCC2C3CC[C@H]4C[C@H](NCCCN5CCCCN=C5N)CC[C@]4(C)C3CC[C@@]21C (stereo partly shown)
Tadpole Tox (lethality at 2 hrs): +
